Where a name gives a salt, the structure may show the parent alone. Some of the results follow. Hit calls seldom repeat between salt and free forms of one compound.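 In K562 cells expressing nanoluciferase-fused kinases, luminescence was recorded at 4 h intervals between 2 and 18 h, normalized as percent of control with DMSO at 100% and a positive control at 0%. A significant (2 sigma) signal drop marks a time point as decreased. The authors' rule for a hit is not shown and takes in more than the number of time points.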
Tests used:
Assay in all cases: kinase-Nluc reporter destabilization hit call (1 = scored as downregulated) (binary); higher = compound decreases kinase abundance
Details in all cases: K562; 2-18 h
ABL1 = ABL1 (UniProt P00519)
AKT1 = AKT1 (UniProt P31749)
ALK = ALK (UniProt Q9UM73)
ARAF = ARAF (UniProt P10398)
AURKA = AURKA (UniProt O14965)
AURKB = AURKB (UniProt Q96GD4)
AURKC = AURKC (UniProt Q9UQB9)
BLK = BLK (UniProt P51451)
BMX = BMX (UniProt P51813)
BRAF = BRAF (UniProt P15056)

The chains behind the UniProt entries cited, without tags or fusion partners. Where a name states a change or a piece, a line headed by the entry shows the natural chain unless it says otherwise.
UniProt P31749: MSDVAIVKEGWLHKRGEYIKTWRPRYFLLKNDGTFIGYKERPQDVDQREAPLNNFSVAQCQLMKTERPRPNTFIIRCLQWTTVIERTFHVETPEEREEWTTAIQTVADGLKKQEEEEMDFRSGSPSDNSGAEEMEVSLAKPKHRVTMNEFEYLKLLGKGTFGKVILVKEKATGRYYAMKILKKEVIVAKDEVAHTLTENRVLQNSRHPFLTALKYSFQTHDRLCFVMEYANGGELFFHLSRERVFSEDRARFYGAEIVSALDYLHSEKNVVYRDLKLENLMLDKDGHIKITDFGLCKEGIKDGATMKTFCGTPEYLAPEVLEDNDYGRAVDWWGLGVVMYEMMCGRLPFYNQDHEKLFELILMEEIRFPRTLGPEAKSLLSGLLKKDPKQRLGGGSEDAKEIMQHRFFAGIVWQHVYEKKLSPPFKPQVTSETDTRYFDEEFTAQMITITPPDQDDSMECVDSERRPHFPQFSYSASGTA
UniProt Q9UM73: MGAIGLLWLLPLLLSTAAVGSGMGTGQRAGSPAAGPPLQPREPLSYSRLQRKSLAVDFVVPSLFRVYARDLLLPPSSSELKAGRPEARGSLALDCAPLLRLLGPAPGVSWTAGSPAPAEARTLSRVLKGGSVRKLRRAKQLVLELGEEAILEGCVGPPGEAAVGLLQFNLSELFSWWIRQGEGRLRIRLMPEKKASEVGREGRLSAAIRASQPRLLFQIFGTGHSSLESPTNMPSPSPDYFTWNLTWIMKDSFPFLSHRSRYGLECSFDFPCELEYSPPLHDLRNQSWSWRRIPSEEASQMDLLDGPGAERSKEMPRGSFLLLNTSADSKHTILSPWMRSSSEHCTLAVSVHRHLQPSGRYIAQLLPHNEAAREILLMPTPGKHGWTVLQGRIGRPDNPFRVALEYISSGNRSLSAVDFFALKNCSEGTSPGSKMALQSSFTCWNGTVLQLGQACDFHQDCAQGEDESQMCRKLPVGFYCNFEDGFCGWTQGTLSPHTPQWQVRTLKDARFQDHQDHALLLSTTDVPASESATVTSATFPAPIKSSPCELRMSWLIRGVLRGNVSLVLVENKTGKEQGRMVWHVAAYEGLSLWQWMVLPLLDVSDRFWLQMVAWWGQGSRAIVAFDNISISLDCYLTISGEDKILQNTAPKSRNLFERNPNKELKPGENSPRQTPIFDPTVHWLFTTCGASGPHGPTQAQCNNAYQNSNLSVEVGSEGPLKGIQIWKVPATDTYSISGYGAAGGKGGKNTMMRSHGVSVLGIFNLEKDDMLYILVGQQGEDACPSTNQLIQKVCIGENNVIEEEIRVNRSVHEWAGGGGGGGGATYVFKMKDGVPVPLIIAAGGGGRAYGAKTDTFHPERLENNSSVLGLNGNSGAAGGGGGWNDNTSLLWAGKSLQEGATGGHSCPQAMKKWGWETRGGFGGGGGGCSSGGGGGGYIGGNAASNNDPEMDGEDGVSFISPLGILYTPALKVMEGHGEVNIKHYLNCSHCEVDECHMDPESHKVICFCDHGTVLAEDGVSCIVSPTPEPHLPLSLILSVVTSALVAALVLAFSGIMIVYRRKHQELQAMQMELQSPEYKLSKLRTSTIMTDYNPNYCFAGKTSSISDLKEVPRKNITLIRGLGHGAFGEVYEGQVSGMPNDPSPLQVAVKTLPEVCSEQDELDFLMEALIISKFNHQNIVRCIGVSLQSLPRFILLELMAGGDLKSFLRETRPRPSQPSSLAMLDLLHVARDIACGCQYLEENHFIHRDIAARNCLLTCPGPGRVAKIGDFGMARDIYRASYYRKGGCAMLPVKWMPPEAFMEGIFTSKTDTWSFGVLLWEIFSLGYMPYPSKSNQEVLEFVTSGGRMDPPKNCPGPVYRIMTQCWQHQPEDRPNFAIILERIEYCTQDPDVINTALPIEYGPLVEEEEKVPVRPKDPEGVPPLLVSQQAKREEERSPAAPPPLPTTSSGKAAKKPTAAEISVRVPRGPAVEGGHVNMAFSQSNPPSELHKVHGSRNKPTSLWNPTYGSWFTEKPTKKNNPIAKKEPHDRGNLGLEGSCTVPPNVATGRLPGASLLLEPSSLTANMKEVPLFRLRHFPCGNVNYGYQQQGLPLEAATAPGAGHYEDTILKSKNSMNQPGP
UniProt P10398: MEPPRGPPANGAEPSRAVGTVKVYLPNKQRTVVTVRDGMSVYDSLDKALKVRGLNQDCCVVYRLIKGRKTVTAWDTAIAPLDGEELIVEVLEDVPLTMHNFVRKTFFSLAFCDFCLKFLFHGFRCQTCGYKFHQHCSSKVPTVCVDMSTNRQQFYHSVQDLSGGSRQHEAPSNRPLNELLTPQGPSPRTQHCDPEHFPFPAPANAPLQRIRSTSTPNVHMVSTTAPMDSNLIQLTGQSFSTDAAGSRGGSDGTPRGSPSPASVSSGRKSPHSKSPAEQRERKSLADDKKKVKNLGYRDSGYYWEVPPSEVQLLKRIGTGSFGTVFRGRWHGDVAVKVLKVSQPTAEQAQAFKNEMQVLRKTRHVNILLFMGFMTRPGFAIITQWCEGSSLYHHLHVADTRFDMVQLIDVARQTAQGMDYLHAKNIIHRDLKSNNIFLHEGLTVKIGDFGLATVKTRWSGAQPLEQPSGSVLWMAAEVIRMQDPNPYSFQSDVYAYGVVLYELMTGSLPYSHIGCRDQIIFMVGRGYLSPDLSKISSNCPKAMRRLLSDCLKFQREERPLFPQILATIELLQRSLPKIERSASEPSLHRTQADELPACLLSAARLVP
UniProt O14965: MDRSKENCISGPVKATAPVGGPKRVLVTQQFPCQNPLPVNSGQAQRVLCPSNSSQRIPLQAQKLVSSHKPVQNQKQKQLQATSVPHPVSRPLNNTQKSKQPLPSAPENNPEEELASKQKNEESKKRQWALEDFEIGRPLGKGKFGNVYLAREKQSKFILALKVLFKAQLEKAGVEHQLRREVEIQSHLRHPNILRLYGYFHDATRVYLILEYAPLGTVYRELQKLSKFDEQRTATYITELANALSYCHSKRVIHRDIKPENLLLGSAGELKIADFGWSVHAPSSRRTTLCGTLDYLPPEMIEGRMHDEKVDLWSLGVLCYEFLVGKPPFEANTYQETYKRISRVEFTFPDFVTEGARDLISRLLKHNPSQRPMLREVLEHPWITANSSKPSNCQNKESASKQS
UniProt Q96GD4, whole entry: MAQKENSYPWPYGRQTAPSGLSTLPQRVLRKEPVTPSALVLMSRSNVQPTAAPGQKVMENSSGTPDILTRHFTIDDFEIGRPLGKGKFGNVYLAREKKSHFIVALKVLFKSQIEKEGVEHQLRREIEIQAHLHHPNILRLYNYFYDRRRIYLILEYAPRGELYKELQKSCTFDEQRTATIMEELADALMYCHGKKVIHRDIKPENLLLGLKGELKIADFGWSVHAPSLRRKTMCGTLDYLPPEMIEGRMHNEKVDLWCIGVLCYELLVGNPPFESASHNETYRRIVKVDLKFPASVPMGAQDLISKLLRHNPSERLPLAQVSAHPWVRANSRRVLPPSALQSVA
UniProt Q9UQB9: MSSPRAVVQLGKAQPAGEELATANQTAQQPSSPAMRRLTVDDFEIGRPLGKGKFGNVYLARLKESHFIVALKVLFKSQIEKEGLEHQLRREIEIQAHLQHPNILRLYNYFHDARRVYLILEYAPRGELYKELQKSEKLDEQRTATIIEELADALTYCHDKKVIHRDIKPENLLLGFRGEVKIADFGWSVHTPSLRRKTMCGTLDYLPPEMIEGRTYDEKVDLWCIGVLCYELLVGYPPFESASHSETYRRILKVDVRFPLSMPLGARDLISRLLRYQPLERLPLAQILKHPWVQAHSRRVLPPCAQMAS
UniProt P51451: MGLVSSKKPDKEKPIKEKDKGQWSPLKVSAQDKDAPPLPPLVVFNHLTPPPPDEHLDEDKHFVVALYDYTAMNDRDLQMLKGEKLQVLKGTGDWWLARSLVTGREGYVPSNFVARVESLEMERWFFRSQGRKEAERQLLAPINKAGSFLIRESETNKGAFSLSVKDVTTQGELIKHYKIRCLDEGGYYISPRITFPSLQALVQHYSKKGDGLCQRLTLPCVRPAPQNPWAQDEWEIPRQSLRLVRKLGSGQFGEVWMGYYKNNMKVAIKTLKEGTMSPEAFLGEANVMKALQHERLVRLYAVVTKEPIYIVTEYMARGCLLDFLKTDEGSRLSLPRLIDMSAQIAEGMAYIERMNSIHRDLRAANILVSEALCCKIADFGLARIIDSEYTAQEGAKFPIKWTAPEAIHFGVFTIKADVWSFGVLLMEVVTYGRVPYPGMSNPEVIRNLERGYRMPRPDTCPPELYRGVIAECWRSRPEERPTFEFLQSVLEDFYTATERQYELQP
UniProt P51813: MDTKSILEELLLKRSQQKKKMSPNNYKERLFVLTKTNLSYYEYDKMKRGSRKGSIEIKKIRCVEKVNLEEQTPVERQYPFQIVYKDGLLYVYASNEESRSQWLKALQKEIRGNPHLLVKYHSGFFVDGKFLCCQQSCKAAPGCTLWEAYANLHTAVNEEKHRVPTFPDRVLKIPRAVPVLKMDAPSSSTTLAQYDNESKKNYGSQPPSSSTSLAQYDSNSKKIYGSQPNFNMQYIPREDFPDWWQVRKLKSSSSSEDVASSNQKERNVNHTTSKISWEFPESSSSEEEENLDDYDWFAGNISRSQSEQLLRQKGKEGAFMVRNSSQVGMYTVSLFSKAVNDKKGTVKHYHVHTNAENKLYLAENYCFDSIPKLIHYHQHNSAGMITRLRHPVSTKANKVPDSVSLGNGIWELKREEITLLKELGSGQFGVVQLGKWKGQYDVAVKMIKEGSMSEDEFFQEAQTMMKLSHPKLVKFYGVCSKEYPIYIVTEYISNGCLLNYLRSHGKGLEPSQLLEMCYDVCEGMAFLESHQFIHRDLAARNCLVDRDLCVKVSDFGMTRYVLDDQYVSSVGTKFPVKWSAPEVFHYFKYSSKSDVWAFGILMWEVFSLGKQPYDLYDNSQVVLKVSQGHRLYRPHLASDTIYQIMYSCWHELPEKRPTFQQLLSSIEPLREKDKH
UniProt P15056, whole entry, looked up: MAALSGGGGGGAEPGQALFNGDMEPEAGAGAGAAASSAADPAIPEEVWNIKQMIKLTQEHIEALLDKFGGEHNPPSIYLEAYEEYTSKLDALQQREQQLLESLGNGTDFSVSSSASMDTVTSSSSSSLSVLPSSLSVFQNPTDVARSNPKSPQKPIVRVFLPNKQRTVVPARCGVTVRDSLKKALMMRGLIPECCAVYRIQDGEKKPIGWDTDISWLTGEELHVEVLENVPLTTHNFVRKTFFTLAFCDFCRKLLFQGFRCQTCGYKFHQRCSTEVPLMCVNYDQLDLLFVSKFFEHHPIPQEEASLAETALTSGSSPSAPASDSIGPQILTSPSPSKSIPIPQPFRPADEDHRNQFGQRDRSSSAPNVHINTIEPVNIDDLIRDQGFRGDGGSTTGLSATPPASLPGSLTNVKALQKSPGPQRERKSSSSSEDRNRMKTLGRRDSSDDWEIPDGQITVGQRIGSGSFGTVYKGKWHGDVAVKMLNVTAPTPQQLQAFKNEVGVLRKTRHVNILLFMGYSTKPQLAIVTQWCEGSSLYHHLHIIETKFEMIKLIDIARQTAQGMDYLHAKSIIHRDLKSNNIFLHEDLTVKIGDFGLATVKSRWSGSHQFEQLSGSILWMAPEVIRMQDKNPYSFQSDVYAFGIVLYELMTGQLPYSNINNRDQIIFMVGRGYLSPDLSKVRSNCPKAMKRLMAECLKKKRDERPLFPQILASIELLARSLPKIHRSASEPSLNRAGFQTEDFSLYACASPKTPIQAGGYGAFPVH

Measured: kinase-Nluc reporter destabilization hit call

COc1ccc(-c2ccc3c(N4CCOCC4)nc(N4C[C@@H](C)O[C@@H](C)C4)nc3n2)cc1CO (2.5 µM)
inactive: ABL1 = 0 | AKT1 = 0 | ALK 0 | ARAF 0 | AURKA 0 | AURKB 0 | AURKC 0 | BLK 0 | BMX 0 | BRAF 0

CN(C)C(=O)Cn1cc(-c2ccc(-c3cncc4ccccc34)cc2)cn1 (10 µM)
inactive: ABL1 = 0 | AKT1 = 0 | ALK 0 | ARAF 0 | AURKA 0 | AURKB 0 | AURKC 0 | BLK 0 | BMX 0 | BRAF 0

C=C1C(=O)O[C@H]2C[C@H](C)C(/C=C/C(C)=O)=CC[C@H]12 [Xanthatin] (2.5 µM)
inactive: ABL1 = 0 | AKT1 = 0 | ALK 0 | ARAF 0 | AURKA 0 | AURKB 0 | AURKC 0 | BLK 0 | BMX 0 | BRAF 0

COc1cc(OC2CCN(C)CC2)ccc1Nc1ncc2c(n1)n(C1CCCC1)c(=O)n2C (10 µM)
inactive: ABL1 = 0 | AKT1 = 0 | ALK 0 | ARAF 0 | AURKA 0 | AURKB 0 | AURKC 0 | BLK 0 | BMX 0 | BRAF 0

O=C([O-])c1cc2ccccc2c(Cc2c(O)c(C(=O)[O-])cc3ccccc23)c1O.[Na+].[Na+] [Pamoic acid (disodium)] (10 µM)
inactive: ABL1 = 0 | AKT1 = 0 | ALK 0 | ARAF 0 | AURKA 0 | AURKB 0 | AURKC 0 | BLK 0 | BMX 0 | BRAF 0

O=C(Nc1ccc(CN2CCOCC2)cc1)c1ccc(-c2cccc(Cl)c2)o1 (10 µM)
inactive: ABL1 = 0 | AKT1 = 0 | ALK 0 | ARAF 0 | AURKA 0 | AURKB 0 | AURKC 0 | BLK 0 | BMX 0 | BRAF 0

CC1(C)C(O[C@@H]2OC[C@@H](O)[C@H](O)[C@H]2O)CC[C@]23CC24CC[C@]2(C)[C@@H]([C@@]5(C)CC[C@@H](C(C)(C)O)O5)[C@H](O)C[C@@]2(C)C4C[C@@H](O[C@@H]2O[C@H](CO)[C@@H](O)[C@H](O)[C@H]2O)C13 (stereo not given in full) [Astragaloside IV] (10 µM)
inactive: ABL1 = 0 | AKT1 = 0 | ALK 0 | ARAF 0 | AURKA 0 | AURKB 0 | AURKC 0 | BLK 0 | BMX 0 | BRAF 0

FC(F)(c1ccc2ncccc2c1)c1nnc2ccc(-c3ccncc3)nn12 (10 µM)
inactive: ABL1 = 0 | AKT1 = 0 | ALK 0 | ARAF 0 | AURKA 0 | AURKB 0 | AURKC 0 | BLK 0 | BMX 0 | BRAF 0

Nc1nc2ccc(Cl)cc2c2nc(-c3ccco3)nn12 (10 µM)
inactive: ABL1 = 0 | AKT1 = 0 | ALK 0 | ARAF 0 | AURKA 0 | AURKB 0 | AURKC 0 | BLK 0 | BMX 0 | BRAF 0

OCCn1cc(-c2ccc3c(c2)CC/C3=N\O)c(-c2ccncc2)n1 (10 µM)
inactive: ABL1 = 0 | AKT1 = 0 | ALK 0 | ARAF 0 | AURKA 0 | AURKB 0 | AURKC 0 | BLK 0 | BMX 0 | BRAF 0

CCc1c(C(=O)NNC(=O)C(O)c2cc(F)cc(F)c2)ccc(O)c1C (stereo not given) (10 µM)
inactive: ABL1 = 0 | AKT1 = 0 | ALK 0 | ARAF 0 | AURKA 0 | AURKB 0 | AURKC 0 | BLK 0 | BMX 0 | BRAF 0

C=CC(=O)Nc1cc(Nc2ncc(Cl)c(-c3c[nH]c4ccccc34)n2)c(OC)cc1N(C)CCN(C)C [Mutant EGFR inhibitor] (2.5 µM)
inactive: ABL1 = 0 | AKT1 = 0 | ALK 0 | ARAF 0 | AURKA 0 | AURKB 0 | AURKC 0 | BLK 0 | BMX 0 | BRAF 0

NS(=O)(=O)c1ccc(-n2nc(C(F)(F)F)cc2-c2ccc(Cl)cc2)cc1 (10 µM)
inactive: ABL1 = 0 | AKT1 = 0 | ALK 0 | ARAF 0 | AURKA 0 | AURKB 0 | AURKC 0 | BLK 0 | BMX 0 | BRAF 0

NC(=O)c1ccc(-c2nc(-c3ccc4c(c3)OCCO4)c(-c3ccccn3)[nH]2)cc1 (10 µM)
inactive: ABL1 = 0 | AKT1 = 0 | ALK 0 | ARAF 0 | AURKA 0 | AURKB 0 | AURKC 0 | BLK 0 | BMX 0 | BRAF 0

CC[C@@H](Oc1nc(Oc2cc(C)cc(-c3cccc(CN)c3)c2)c(F)cc1F)C(=O)O (10 µM)
inactive: ABL1 = 0 | AKT1 = 0 | ALK 0 | ARAF 0 | AURKA 0 | AURKB 0 | AURKC 0 | BLK 0 | BMX 0 | BRAF 0

Nc1cc(C(F)(F)F)c(-c2cc(N3CCOCC3)nc(N3CCOCC3)n2)cn1 [Buparlisib (Hydrochloride)] (2.5 µM)
inactive: ABL1 = 0 | AKT1 = 0 | ALK 0 | ARAF 0 | AURKA 0 | AURKB 0 | AURKC 0 | BLK 0 | BMX 0 | BRAF 0

CC(C)(C)c1cc(O)ccc1O (10 µM)
inactive: ABL1 = 0 | AKT1 = 0 | ALK 0 | ARAF 0 | AURKA 0 | AURKB 0 | AURKC 0 | BLK 0 | BMX 0 | BRAF 0

CN1C(=O)N[C@H](Cc2c[nH]c3c(Cl)cccc23)C1=O [Necrostatin 2] (10 µM)
inactive: ABL1 = 0 | AKT1 = 0 | ALK 0 | ARAF 0 | AURKA 0 | AURKB 0 | AURKC 0 | BLK 0 | BMX 0 | BRAF 0

O=C(NOCC(O)CO)c1cc(Br)c(F)c(F)c1Nc1ccc(I)cc1F (stereo not given) (2.5 µM)
inactive: ABL1 = 0 | AKT1 = 0 | ALK 0 | ARAF 0 | AURKA 0 | AURKB 0 | AURKC 0 | BLK 0 | BMX 0 | BRAF 0

NC(=O)c1nc(Nc2ccccc2)sc1NC(=O)C1CCCCC1 (10 µM)
inactive: ABL1 = 0 | AKT1 = 0 | ALK 0 | ARAF 0 | AURKA 0 | AURKB 0 | AURKC 0 | BLK 0 | BMX 0 | BRAF 0

Cc1cccc(Oc2cnc(=O)[nH]c2)c1 [Tolimidone] (10 µM)
inactive: ABL1 = 0 | AKT1 = 0 | ALK 0 | ARAF 0 | AURKA 0 | AURKB 0 | AURKC 0 | BLK 0 | BMX 0 | BRAF 0

C=CC(=O)Nc1cccc(Nc2nc(Nc3ccc(NC4CN(CCF)C4)cc3OC)ncc2C(F)(F)F)c1 (2.5 µM)
inactive: ABL1 = 0 | AKT1 = 0 | ALK 0 | ARAF 0 | AURKA 0 | AURKB 0 | AURKC 0 | BLK 0 | BMX 0 | BRAF 0

Cc1ccc(OCCSc2ncccn2)c(Br)c1 [ZLN024 (hydrochloride)] (10 µM)
inactive: ABL1 = 0 | AKT1 = 0 | ALK 0 | ARAF 0 | AURKA 0 | AURKB 0 | AURKC 0 | BLK 0 | BMX 0 | BRAF 0

Cc1ccc2nc(NCCN)c3ncc(C)n3c2c1 (2.5 µM)
inactive: ABL1 = 0 | AKT1 = 0 | ALK 0 | ARAF 0 | AURKA 0 | AURKB 0 | AURKC 0 | BLK 0 | BMX 0 | BRAF 0

CN(C)CCSSCCNC(=O)C1CCN(C(=O)CSc2ccc(Cl)cc2)CC1 (10 µM)
inactive: ABL1 = 0 | AKT1 = 0 | ALK 0 | ARAF 0 | AURKA 0 | AURKB 0 | AURKC 0 | BLK 0 | BMX 0 | BRAF 0

Cn1ncc(Cl)c1-c1cc(C(=O)N[C@H](CN)Cc2ccc(F)c(F)c2)oc1Cl [Uprosertib] (10 µM)
inactive: ABL1 = 0 | AKT1 = 0 | ALK 0 | ARAF 0 | AURKA 0 | AURKB 0 | AURKC 0 | BLK 0 | BMX 0 | BRAF 0

Cc1ccc2cc(-c3c(C)ccc(C(=O)c4c(-c5ccccc5)n(C)n(-c5ccccc5)c4=O)c3N)ccc2n1 (2.5 µM)
inactive: ABL1 = 0 | AKT1 = 0 | ALK 0 | ARAF 0 | AURKA 0 | AURKB 0 | AURKC 0 | BLK 0 | BMX 0 | BRAF 0

COc1cc2c(cc1OC)CN(S(=O)(=O)c1ccc(OC)c(N3CCN(C(=O)c4ccc(F)cc4C(F)(F)F)CC3)c1)CC2 (10 µM)
inactive: ABL1 = 0 | AKT1 = 0 | ALK 0 | ARAF 0 | AURKA 0 | AURKB 0 | AURKC 0 | BLK 0 | BMX 0 | BRAF 0

CCCS(=O)(=O)Nc1ccc(F)c(C(=O)c2c[nH]c3ncc(-c4ccc(Cl)cc4)cc23)c1F [Vemurafenib] (10 µM)
inactive: ABL1 = 0 | AKT1 = 0 | ALK 0 | ARAF 0 | AURKA 0 | AURKB 0 | AURKC 0 | BLK 0 | BMX 0 | BRAF 0

Fetched by compound from the list above, two records:
Cn1ncc(Cl)c1-c1cc(C(=O)N[C@H](CN)Cc2ccc(F)c(F)c2)oc1Cl [Uprosertib] (10 µM)
inactive: ABL1 = 0 | AKT1 = 0 | ALK 0 | ARAF 0 | AURKA 0 | AURKB 0 | AURKC 0 | BLK 0 | BMX 0 | BRAF 0

COc1cc2c(cc1OC)CN(S(=O)(=O)c1ccc(OC)c(N3CCN(C(=O)c4ccc(F)cc4C(F)(F)F)CC3)c1)CC2 (10 µM)
inactive: ABL1 = 0 | AKT1 = 0 | ALK 0 | ARAF 0 | AURKA 0 | AURKB 0 | AURKC 0 | BLK 0 | BMX 0 | BRAF 0
